Assay results published in the supplement of paper PMC10849652.
Some of the results follow.

Chains of the proteins cited; added tags and fusions are not shown. Lines headed by an entry give the natural chain unless they say otherwise; changes in a name come on top.
UniProt Q5VTL8: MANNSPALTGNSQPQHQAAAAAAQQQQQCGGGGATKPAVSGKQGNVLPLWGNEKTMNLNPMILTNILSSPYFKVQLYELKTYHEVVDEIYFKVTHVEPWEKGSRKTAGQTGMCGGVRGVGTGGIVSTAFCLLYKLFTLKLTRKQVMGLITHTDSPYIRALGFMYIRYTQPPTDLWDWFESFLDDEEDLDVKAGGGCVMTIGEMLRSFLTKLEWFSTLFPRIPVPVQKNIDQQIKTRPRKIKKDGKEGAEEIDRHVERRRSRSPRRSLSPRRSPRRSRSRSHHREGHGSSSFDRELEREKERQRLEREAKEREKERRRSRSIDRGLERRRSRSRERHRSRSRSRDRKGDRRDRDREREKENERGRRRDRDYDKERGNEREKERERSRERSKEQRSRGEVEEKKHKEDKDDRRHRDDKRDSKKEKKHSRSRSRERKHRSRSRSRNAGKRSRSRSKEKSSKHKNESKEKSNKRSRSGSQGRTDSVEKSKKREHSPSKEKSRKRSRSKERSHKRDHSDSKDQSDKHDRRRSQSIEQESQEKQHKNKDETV
UniProt Q9NR22, whole entry, looked up: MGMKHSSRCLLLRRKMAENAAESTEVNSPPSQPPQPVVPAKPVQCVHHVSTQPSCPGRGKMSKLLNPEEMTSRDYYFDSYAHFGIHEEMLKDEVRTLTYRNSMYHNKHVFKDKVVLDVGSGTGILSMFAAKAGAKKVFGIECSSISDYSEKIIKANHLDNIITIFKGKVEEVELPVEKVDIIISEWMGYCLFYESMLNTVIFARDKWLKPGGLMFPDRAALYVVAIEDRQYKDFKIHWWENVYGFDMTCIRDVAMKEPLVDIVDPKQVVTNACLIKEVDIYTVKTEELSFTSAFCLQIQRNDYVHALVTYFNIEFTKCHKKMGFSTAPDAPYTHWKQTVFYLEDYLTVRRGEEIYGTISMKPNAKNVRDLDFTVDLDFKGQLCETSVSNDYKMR
UniProt Q8TAP8: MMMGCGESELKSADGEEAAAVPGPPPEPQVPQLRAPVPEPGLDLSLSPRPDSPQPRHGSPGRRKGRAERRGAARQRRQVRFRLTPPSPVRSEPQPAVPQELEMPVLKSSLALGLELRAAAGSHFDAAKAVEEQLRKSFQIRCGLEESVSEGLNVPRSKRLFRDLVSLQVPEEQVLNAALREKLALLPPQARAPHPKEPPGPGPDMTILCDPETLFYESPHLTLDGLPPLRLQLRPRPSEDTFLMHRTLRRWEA
UniProt Q9BZL4: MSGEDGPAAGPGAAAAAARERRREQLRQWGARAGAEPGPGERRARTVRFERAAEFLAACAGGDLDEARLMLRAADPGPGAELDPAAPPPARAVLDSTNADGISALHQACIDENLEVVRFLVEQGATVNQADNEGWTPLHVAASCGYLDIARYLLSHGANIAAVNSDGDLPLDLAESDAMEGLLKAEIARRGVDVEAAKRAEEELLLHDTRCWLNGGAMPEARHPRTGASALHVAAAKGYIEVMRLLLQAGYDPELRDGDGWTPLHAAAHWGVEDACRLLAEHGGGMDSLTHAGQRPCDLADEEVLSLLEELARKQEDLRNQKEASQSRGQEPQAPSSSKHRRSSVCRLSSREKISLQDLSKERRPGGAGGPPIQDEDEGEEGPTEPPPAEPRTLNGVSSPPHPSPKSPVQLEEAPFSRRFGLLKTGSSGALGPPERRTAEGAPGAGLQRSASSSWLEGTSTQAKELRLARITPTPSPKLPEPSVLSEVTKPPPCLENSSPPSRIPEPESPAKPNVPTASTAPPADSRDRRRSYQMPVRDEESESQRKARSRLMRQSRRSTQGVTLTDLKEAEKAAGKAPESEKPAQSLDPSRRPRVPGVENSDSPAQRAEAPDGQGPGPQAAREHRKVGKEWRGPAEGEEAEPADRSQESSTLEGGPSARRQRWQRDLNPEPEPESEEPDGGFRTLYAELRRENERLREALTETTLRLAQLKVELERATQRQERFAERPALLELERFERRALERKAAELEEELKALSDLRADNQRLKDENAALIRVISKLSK
UniProt O14744, whole entry, looked up: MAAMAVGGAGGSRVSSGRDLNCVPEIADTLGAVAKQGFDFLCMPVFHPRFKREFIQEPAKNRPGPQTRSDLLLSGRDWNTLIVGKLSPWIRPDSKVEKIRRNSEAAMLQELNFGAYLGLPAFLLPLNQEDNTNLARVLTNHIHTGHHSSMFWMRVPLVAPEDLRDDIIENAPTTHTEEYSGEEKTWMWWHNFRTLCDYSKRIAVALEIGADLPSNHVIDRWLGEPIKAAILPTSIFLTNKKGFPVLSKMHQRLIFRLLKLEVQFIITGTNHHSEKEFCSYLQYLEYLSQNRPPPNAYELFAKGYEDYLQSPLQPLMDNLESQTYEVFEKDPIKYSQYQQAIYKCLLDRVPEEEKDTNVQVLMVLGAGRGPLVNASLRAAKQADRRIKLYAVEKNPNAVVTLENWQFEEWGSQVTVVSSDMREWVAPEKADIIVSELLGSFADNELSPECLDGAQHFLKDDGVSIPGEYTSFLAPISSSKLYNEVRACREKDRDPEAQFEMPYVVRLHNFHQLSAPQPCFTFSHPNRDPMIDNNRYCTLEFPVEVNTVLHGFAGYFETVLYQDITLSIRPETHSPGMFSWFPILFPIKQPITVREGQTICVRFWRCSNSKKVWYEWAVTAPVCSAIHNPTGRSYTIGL
UniProt Q16537, whole entry, looked up: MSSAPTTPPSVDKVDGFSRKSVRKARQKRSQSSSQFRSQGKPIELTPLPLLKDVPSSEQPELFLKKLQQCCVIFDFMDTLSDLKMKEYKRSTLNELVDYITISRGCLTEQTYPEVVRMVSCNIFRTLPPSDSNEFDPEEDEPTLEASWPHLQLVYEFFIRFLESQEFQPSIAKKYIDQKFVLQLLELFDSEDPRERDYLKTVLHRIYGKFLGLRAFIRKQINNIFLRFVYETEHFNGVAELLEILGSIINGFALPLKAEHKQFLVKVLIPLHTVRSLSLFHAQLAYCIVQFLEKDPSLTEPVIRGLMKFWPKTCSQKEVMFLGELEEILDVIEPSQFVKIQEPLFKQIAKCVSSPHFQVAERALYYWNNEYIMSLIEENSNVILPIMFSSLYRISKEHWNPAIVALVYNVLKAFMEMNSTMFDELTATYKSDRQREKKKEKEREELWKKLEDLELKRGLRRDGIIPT
UniProt Q9UPN7: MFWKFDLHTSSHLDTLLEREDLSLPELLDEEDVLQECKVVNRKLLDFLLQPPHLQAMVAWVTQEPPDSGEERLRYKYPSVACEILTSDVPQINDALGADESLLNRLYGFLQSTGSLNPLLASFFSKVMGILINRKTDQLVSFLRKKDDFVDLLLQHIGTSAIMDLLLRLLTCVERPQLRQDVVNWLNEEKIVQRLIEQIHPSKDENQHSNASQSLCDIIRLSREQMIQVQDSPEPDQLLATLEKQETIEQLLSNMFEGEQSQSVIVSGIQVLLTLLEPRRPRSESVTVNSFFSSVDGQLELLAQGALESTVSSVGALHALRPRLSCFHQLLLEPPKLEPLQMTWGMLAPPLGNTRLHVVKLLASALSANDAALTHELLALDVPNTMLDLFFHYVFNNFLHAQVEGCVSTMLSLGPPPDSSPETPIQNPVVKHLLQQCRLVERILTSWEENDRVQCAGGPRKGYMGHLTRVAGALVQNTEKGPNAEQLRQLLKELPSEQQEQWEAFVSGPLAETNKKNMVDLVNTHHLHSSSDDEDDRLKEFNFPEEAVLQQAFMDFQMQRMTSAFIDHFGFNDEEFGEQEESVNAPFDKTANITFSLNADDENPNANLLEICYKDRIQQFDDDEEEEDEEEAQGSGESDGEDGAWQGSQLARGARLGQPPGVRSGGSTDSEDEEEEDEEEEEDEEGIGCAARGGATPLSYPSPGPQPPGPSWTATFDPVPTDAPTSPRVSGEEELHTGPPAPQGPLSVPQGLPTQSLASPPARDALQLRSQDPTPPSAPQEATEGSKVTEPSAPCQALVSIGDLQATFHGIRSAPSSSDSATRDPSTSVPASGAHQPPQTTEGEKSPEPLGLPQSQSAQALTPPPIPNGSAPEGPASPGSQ
UniProt Q9UMR5: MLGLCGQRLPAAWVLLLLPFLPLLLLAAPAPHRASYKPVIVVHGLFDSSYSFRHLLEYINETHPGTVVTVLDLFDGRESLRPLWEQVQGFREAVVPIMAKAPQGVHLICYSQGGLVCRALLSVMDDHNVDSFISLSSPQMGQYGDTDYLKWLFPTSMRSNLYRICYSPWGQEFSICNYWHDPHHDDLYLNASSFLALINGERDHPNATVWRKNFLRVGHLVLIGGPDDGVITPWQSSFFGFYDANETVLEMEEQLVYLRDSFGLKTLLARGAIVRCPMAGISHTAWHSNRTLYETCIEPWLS
UniProt P10644, whole entry, looked up: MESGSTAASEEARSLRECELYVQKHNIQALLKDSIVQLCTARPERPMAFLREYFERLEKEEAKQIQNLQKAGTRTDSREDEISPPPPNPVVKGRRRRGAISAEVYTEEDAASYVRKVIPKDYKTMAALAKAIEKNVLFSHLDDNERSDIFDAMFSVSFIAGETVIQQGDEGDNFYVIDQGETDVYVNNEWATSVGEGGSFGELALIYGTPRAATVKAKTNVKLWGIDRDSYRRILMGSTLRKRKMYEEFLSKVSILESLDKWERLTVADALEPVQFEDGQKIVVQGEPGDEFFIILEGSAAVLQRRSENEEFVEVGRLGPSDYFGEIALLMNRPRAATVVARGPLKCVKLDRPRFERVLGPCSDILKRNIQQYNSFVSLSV
UniProt Q13029: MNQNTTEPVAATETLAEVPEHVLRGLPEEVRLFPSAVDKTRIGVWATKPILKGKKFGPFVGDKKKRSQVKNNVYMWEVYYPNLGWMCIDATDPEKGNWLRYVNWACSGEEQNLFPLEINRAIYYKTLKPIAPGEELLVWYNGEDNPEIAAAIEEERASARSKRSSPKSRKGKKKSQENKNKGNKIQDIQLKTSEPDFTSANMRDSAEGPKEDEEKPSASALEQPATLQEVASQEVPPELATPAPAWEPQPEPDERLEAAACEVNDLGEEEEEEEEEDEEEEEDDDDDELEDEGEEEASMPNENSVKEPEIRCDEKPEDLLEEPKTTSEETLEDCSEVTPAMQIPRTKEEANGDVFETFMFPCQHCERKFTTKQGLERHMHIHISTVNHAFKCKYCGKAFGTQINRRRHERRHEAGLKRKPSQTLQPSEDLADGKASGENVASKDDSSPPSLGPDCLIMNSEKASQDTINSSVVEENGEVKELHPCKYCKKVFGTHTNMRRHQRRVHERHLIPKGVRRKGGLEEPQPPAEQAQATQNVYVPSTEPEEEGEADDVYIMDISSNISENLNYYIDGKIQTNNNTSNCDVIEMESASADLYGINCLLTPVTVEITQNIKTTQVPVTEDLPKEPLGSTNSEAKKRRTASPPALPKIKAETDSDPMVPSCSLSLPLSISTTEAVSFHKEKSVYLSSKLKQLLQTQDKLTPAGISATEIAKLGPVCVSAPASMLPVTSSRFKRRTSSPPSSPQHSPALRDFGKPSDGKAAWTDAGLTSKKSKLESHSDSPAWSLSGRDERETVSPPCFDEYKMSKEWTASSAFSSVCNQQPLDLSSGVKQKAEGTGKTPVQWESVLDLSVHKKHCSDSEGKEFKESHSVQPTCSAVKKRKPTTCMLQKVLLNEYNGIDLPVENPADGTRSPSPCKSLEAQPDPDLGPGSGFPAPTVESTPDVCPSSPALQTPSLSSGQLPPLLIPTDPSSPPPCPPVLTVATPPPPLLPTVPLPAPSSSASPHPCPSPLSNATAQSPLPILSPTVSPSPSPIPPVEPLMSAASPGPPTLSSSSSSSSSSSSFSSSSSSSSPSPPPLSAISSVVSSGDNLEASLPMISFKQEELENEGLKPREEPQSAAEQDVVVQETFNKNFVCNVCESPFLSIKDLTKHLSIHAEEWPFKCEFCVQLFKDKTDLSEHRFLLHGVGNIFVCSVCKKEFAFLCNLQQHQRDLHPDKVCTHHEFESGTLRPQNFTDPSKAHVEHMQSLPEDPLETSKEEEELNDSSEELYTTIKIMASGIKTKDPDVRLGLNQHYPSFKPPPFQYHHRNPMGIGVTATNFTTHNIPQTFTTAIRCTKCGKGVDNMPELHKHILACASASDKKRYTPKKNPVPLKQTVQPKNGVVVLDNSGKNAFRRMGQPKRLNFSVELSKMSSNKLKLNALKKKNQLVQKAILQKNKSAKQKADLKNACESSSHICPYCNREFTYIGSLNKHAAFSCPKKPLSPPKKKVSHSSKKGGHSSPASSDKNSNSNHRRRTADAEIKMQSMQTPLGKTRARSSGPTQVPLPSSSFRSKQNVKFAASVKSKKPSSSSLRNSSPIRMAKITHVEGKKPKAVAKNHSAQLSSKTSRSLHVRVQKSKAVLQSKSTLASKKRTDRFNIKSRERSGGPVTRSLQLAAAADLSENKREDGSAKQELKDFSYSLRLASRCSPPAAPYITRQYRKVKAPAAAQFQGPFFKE

How the values were obtained:
Assay in all cases: log2 fold change, soluble protein after heating vs DMSO (PISA); higher = thermal stabilisation; K562 cells, 10 uM, 30 min; active = over 0.2 and 3.5 SD of the protein, either way, in both replicates (recomputed)
[1] = compound: CC[C@@H]1C(=O)N(C)c2cnc(Nc3ccc(C(=O)NC4CCN(C)CC4)cc3OC)nc2N1C1CCCC1
Outline: (§1)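 K562 cells at 2×10^6 cells/mL were treated with 10 μM compound for 30 min. Aliquots were heated for 3 min across 48°C-58°C, pooled, and extracted in PBS with 0.5% NP-40 at 4°C; soluble protein was the supernatant after 21,000xg for 90 min. Soluble protein was quantified by TMTpro 16plex LC-MS/MS with channel sums equalised, and reported as log2 fold change in thermal stability against DMSO controls, with values from duplicates.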

[2] = compound: CC[C@@H]1C(=O)N(C)c2cnc(Nc3ccc(C(=O)N[C@H]4CC[C@H](N5CCN(CC6CC6)CC5)CC4)cc3OC)nc2N1C(C)C [volasertib]
Outline: as §1

[3] = compound: CC[C@H](C)N1C=C(C2=C(C=C(C=C21)C3=CN=C(C=C3)N4CCNCC4)C(=O)NCC5=C(C=C(NC5=O)C)C)C
Outline: as §1

[4] = compound: CC[C@H](C)[C@@H](C(=O)N[C@@H]([C@@H](C)O)C(=O)N[C@@H](CC(C)C)C(=O)[C@]1(CO1)C)NC(=O)[C@H]([C@@H](C)CC)N(C)C(=O)C [epoxomicin]
Outline: as §1

[5] = compound: CCn1c(C(=O)N(C2CC2)C2CC2)cc2c3c(ncn3C)c(Nc3cc(C)n(C)n3)nc21
Outline: as §1

[6] = compound: CCn1cc(-c2ccnc3[nH]c(-c4cccc(CN(C)C)c4)cc23)c(-c2ccc(NC(=O)N(C)C)cc2)n1
Outline: as §1

[7] = compound: CN(C)CC(=O)Nc1ccc2[nH]c(=O)c3ccccc3c2c1
Outline: as §1

[8] = compound: CN(CCOC1=CC=C(C=C1)C[C@H]2C(=O)NC(=O)S2)C3=CC=CC=N3 (racemic) [rosiglitazone]
Outline: as §1

[9] = compound: CN1C2=C(C3=C1C(=O)N(N=C3)CC4=CC(=CC=C4)N)SC(=C2)S(=O)C
Outline: as §1

[10] = compound: CN1CCC(CNc2ccc3ncc(-c4cccc(OC(F)(F)F)c4)n3n2)CC1
Outline: as §1

[11] = compound: CN1CCN(CCOc2cc(OC3CCOCC3)c3c(Nc4c(Cl)ccc5c4OCO5)ncnc3c2)CC1 [saracatinib]
Outline: as §1

[12] = compound: CN1CCN(c2nc(C3=C(c4c[nH]c5ccccc45)C(=O)NC3=O)c3ccccc3n2)CC1 [sotrastaurin]
Outline: as §1

[13] = compound: CN1CC[C@H](c2c(O)cc(O)c3c(=O)cc(-c4ccccc4Cl)oc23)[C@H](O)C1 [alvocidib]
Outline: as §1

[14] = compound: CN1CCc2c(c3ccccc3n2Cc2ccc(C(=O)NO)cc2)C1 [Tubastatin A]
Outline: as §1

[15] = compound: CNC(=O)C1=CC=CC=C1NC2=NC(=NC=C2Cl)NC3=C(C=C(C=C3)N4CCOCC4)OC
Outline: as §1

[16] = compound: CNC(=O)c1ccc(Nc2ncc(C(F)(F)F)c(NCc3nccnc3N(C)S(C)(=O)=O)n2)cc1 [defactinib]
Outline: as §1

[17] = compound: CNCc1ccc(-c2[nH]c3cc(F)cc4c3c2CCNC4=O)cc1 [rucaparib]
Outline: as §1

[18] = compound: CNc1nc(-c2ccc3c(N)n[nH]c3c2)cc(N2C[C@@H](C(=O)NC3CCCCC3)CC[C@H]2C)n1
Outline: as §1

[19] = compound: COC(=O)N[C@@H](C)CNc1nccc(-c2cn(C(C)C)nc2-c2cc(Cl)cc(NS(C)(=O)=O)c2F)n1 [encorafenib]
Outline: as §1

[20] = compound: COC(=O)[C@H](CCSC)NC(=O)C1=C(C=C(C=C1)NC[C@H](CS)N)C2=CC=CC=C2
Outline: as §1

Measured: log2 fold change

PPP1CC isoform 2 (UniProt P36873)
inactive: [1] 0.022 | [2] 0.021 | [3] 0.024 | [4] -0.024 | [5] -0.027 | [6] -0.001 | [7] 0.002 | [8] 0.014 | [9] -0.091 | [10] 0 | [11] 0.007 | [12] 0.03 | [13] -0.043 | [14] -0.021 | [15] -0.056 | [16] -0.006 | [17] -0.019 | [18] -0.022 | [19] -0.015 | [20] -0.016

PRPF38A (UniProt Q8NAV1)
inactive: [1] -0.029 | [2] -0.016 | [3] 0 | [4] 0.048 | [6] 0.031 | [7] 0.051 | [9] -0.037 | [10] -0.081 | [11] 0.019 | [12] 0.016 | [14] -0.024 | [15] 0.052 | [16] -0.036 | [17] 0.121 | [18] -0.035 | [19] -0.034 | [20] -0.008

PRPF38B (UniProt Q5VTL8)
inactive: [1] -0.152 | [2] -0.231 | [3] 0.015 | [4] -0.002 | [6] -0.02 | [7] -0.01 | [9] 0.018 | [10] -0.073 | [11] 0.011 | [12] -0.006 | [14] -0.027 | [17] -0.08 | [18] -0.039 | [19] 0.015 | [20] 0.044
active: [15] -0.287 | [16] -0.27

PRPSAP2 (UniProt O60256)
inactive: [1] 0.07 | [2] 0.056 | [3] -0.043 | [4] -0.008 | [6] -0.088 | [7] -0.02 | [9] -0.041 | [10] 0.159 | [11] 0.011 | [12] 0.084 | [14] -0.018 | [15] -0.017 | [16] 0.01 | [17] -0.014 | [18] 0.03 | [19] -0.004 | [20] -0.012

PRKAA1 isoform 2 (UniProt Q13131)
inactive: [1] -0.035 | [2] -0.154 | [3] 0.04 | [4] 0.017 | [6] -0.052 | [7] -0.007 | [9] 0.001 | [11] 0.027 | [12] 0.033 | [14] -0.015 | [15] -0.19 | [16] -0.048 | [17] -0.006 | [18] -0.047 | [19] 0.02 | [20] -0.004
active: [10] -0.254

Quoted from above (four entries):
PRPF38A (UniProt Q8NAV1)
inactive: [1] -0.029 | [2] -0.016 | [3] 0 | [4] 0.048 | [6] 0.031 | [7] 0.051 | [9] -0.037 | [10] -0.081 | [11] 0.019 | [12] 0.016 | [14] -0.024 | [15] 0.052 | [16] -0.036 | [17] 0.121 | [18] -0.035 | [19] -0.034 | [20] -0.008

PRPF38B (UniProt Q5VTL8)
inactive: [1] -0.152 | [2] -0.231 | [3] 0.015 | [4] -0.002 | [6] -0.02 | [7] -0.01 | [9] 0.018 | [10] -0.073 | [11] 0.011 | [12] -0.006 | [14] -0.027 | [17] -0.08 | [18] -0.039 | [19] 0.015 | [20] 0.044
active: [15] -0.287 | [16] -0.27

PRPSAP2 (UniProt O60256)
inactive: [1] 0.07 | [2] 0.056 | [3] -0.043 | [4] -0.008 | [6] -0.088 | [7] -0.02 | [9] -0.041 | [10] 0.159 | [11] 0.011 | [12] 0.084 | [14] -0.018 | [15] -0.017 | [16] 0.01 | [17] -0.014 | [18] 0.03 | [19] -0.004 | [20] -0.012

PRKAA1 isoform 2 (UniProt Q13131)
inactive: [1] -0.035 | [2] -0.154 | [3] 0.04 | [4] 0.017 | [6] -0.052 | [7] -0.007 | [9] 0.001 | [11] 0.027 | [12] 0.033 | [14] -0.015 | [15] -0.19 | [16] -0.048 | [17] -0.006 | [18] -0.047 | [19] 0.02 | [20] -0.004
active: [10] -0.254

Next part:

PRKCA (UniProt P17252)
active: [12] -0.502
inactive: [1] 0.073 | [2] -0.179 | [3] 0.025 | [4] -0.018 | [6] 0 | [7] 0.017 | [9] -0.15 | [10] -0.29 | [11] -0.174 | [14] 0.018 | [15] 0.026 | [16] -0.006 | [17] 0.039 | [18] 0.308 | [19] -0.038 | [20] 0.005

PPP1CA (UniProt P62136)
inactive: [1] -0.014 | [2] -0.061 | [3] 0.003 | [4] 0.02 | [6] -0.041 | [7] -0.033 | [9] -0.077 | [10] 0.011 | [11] 0.036 | [12] -0.03 | [14] -0.024 | [15] -0.009 | [16] -0.033 | [17] -0.008 | [18] -0.028 | [19] -0.009 | [20] 0.018

PRMT8 (UniProt Q9NR22)
inactive: [1] 0.019 | [2] -0.074 | [3] 0.011 | [4] 0.017 | [6] -0.087 | [7] -0.022 | [9] -0.117 | [10] -0.009 | [11] 0.015 | [12] -0.046 | [14] -0.09 | [15] -0.009 | [16] -0.039 | [17] -0.059 | [18] 0.052 | [19] 0.01 | [20] -0.122

PPP1R35 (UniProt Q8TAP8)
inactive: [1] 0.062 | [2] 0.101 | [3] -0.062 | [4] 0.062 | [6] 0.007 | [7] -0.004 | [9] 0.027 | [10] -0.032 | [11] 0.034 | [12] -0.011 | [14] 0.035 | [15] -0.029 | [16] -0.007 | [17] 0.019 | [18] -0.109 | [19] 0.072 | [20] 0.052

PPP1R12C (UniProt Q9BZL4)
inactive: [1] 0.029 | [2] -0.027 | [3] 0.204 | [4] -0.102 | [6] -0.116 | [7] -0.03 | [9] 0.013 | [10] 0.029 | [11] -0.115 | [12] -0.157 | [14] 0.014 | [15] 0.113 | [16] -0.205 | [17] 0.184 | [18] -0.164 | [19] -0.013 | [20] 0.035

PRMT5 (UniProt O14744)
inactive: [1] -0.022 | [2] 0.088 | [3] -0.009 | [4] 0.019 | [5] -0.014 | [6] 0.004 | [7] 0.001 | [8] 0.019 | [9] -0.092 | [10] 0.005 | [11] -0.009 | [12] 0.027 | [13] 0.21 | [14] 0 | [15] 0.025 | [16] 0.019 | [17] -0.012 | [18] -0.004 | [19] 0 | [20] -0.026

PPP2R5E (UniProt Q16537)
inactive: [3] -0.025 | [4] -0.034 | [6] -0.165 | [7] 0.018 | [9] -0.048 | [11] -0.077 | [12] 0.012 | [14] 0.005 | [15] 0.083 | [16] -0.025 | [17] -0.008 | [18] 0.074 | [19] 0.021 | [20] -0.017
active: [1] -0.259 | [2] -0.404 | [10] -0.99

PPP6R1 (UniProt Q9UPN7)
inactive: [1] -0.098 | [3] 0 | [4] -0.033 | [6] 0.026 | [7] 0.053 | [9] -0.007 | [10] -0.048 | [11] 0.058 | [12] -0.064 | [14] -0.08 | [15] 0.038 | [16] -0.058 | [17] -0.013 | [18] -0.044 | [19] 0.034 | [20] -0.027
active: [2] -0.297

PPT2 isoform 3 (UniProt Q9UMR5)
active: [1] -0.57 | [2] -0.87 | [10] -0.682
inactive: [3] -0.006 | [4] -0.021 | [6] 0.206 | [7] -0.068 | [9] -0.051 | [11] 0.042 | [12] 0.022 | [14] 0.018 | [15] 0 | [16] -0.023 | [17] 0.025 | [18] 0.038 | [19] -0.003 | [20] 0.029

PRKAR1A (UniProt P10644)
inactive: [1] 0.213 | [2] -0.054 | [3] -0.068 | [4] -0.122 | [6] 0.001 | [7] 0.023 | [9] 0.132 | [11] -0.067 | [12] 0.105 | [14] 0.007 | [15] 0.366 | [16] 0.14 | [17] 0.13 | [18] 0.005 | [19] 0.073 | [20] -0.069
active: [10] 0.705

PRMT3 (UniProt O60678)
active: [2] -0.411 | [10] -0.953
inactive: [1] -0.126 | [3] 0.039 | [4] 0.033 | [6] -0.093 | [7] 0.039 | [9] -0.008 | [11] 0.021 | [12] -0.046 | [14] -0.017 | [15] 0.058 | [16] -0.005 | [17] 0.035 | [18] 0.011 | [19] 0.061 | [20] -0.064

PPP2R5A (UniProt Q15172)
active: [2] -0.295 | [10] -0.305
inactive: [1] -0.099 | [3] 0.097 | [4] 0.067 | [6] -0.046 | [7] 0.072 | [9] -0.049 | [11] -0.03 | [12] -0.043 | [14] 0.042 | [15] 0.01 | [16] -0.037 | [17] 0.053 | [18] 0.032 | [19] 0.063 | [20] -0.03

PRDM2 (UniProt Q13029)
inactive: [1] 0.055 | [2] -0.02 | [3] 0.434 | [4] 0.007 | [6] 0.046 | [7] -0.411 | [9] 0.015 | [10] 0.141 | [11] 0.004 | [13] 0.236 | [14] 0.019 | [16] 0.392 | [17] -0.005 | [18] 0.074 | [19] 0.223 | [20] 0.408

PRPH isoform 2 (UniProt P41219)
inactive: [1] 0.096 | [2] 0.249 | [3] -0.051 | [5] -0.171 | [6] 0.289 | [7] -0.076 | [8] -0.18 | [9] 0.492 | [10] 0.215 | [11] -0.161 | [12] -0.131 | [13] 0.113 | [14] -0.027 | [15] -0.033 | [16] 0.199 | [17] 0 | [18] -0.106 | [19] 0.069 | [20] 0.083
